Test results as given in patent publication US10301520B2, “Compositions of hydrochlorofluoroolefins” (Arkema Inc., priority 2008, dated 2019).

Tests used:
[1] = Material compatibility with elastomer, linear swelling; details: EPDM; boiling point of E-1233zd, more than 72 hours
[2] = as above; details: Natural Rubber; boiling point of E-1233zd, more than 72 hours
[3] = as above; details: Silicone Rubber; boiling point of E-1233zd, more than 72 hours

Structure (SMILES)	Linear Swell [1] [%]	Linear Swell [2] [%]	Linear Swell [3] [%]
FC(F)(Cl)C(F)(Cl)Cl [CFC 113]	7.9	4.9	36.6
FC(F)(F)/C=C/Cl [E-1233zd, 1-chloro-3,3,3-trifluoropropene]	5.0	10.0	23.0
